# Test results as given in paper doi:10.1101/2021.06.09.447716.
# The chains behind the UniProt entries cited, without tags or fusion partners. Residues count along the entry.
# UniProt P56817, residues 46-501: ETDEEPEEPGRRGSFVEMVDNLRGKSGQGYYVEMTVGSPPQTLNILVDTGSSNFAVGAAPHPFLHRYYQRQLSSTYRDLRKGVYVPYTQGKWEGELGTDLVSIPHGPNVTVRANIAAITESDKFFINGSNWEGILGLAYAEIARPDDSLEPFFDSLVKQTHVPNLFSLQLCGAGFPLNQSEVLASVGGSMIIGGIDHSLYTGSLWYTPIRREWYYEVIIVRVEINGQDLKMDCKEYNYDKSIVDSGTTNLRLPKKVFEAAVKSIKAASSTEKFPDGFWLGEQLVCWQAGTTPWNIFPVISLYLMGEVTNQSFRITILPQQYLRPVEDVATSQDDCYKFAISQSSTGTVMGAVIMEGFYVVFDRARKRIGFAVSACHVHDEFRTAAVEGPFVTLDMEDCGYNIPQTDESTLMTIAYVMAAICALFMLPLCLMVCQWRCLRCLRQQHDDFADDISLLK
# These are yes or no findings as the source states them, for the method shown. Binding seen in cells or lysates may run through a third protein. Some results given as binding are weak or reduced against the parent protein; the word gives no strength.
# Molecular target: BACE1-GFP (UniProt P56817)
# Test: co-IP
substance,measurement,value
"siRNA-resistant neuronal Bin1-MYC (brain amphiphysin II (BRAMP2); isoform 1), wild type (from UniProt O08539-1 1-588)",binding,binds
